Assay results: PMC4741798, “Imaging of carbonic anhydrase IX with an ^111In-labeled dual-motif inhibitor” (Oncotarget, 2015)
This continues a long series; more values of the same kind are listed elsewhere.

Test system: SK-RC-52 xenografts
Assay: Biodistribution in mice bearing SK-RC-52 xenografts
Type: in vivo
Settings: 48 h + Block (co-injected 200 nmole of 1); n = 5
Protocol: Mice bearing SK-RC-52 xenografts within the lower left flank were injected intravenously with 740 kBq (20 μCi) of [^111In]XYIMSR-01 in 200 μL of PBS. For in vivo competition (binding specificity) studies, tumor-bearing mice were injected with 740 kBq (20 μCi) of [^111In]XYIMSR-01 and 200 nmole of 1 in 200 μL of PBS concurrently. At 1 h, 4 h, 8 h, 24 h and 48 h post-injection, mice were sacrificed by cervical dislocation and the blood was immediately collected by cardiac puncture. Heart, lungs, pancreas, spleen, fat, brain, muscle, small intestines, liver, stomach, kidney, urinary bladder, and tumor were collected. Each organ was weighed and the tissue radioactivity was measured with an automated gamma counter (1282 Compugamma CS, Pharmacia/LKBNuclear, Inc., Mt. Waverly, Vic. Australia). The percentage of injected dose per gram of tissue (% ID/g) was calculated by comparison with samples of a standard dilution of the initial dose. All measurements were corrected for radioactive decay.
Data were expressed as mean ± standard deviation (SD). Prism software (GraphPAD, San Diego, California) was used to determine statistical significance. Statistical significance was calculated using a paired t test. P-values < 0.0001 were considered significant.

Compound: CC(CCC(=O)N[C@@H](CC(=O)N[C@@H](CC(=O)N[C@@H](CCCCn1cc(CCCC(=O)Nc2nnc(S(N)(=O)=O)s2)nn1)C(=O)NCCOCCOCCNC(=O)CN1CCN(CC(=O)[O-])CCN(CC(=O)[O-])CCN(CC(=O)[O-])CC1)C(=O)O)C(=O)O)(c1ccc(O)cc1)c1ccc(O)cc1.[111In+3] [[^111In]XYIMSR-01]
- Biodistribution: Brain: 0.03 ± 0.01 %ID/g
